Experimental data as given in the supplement of paper PMC8256030.
Some of the results follow. Repeats in this data set agree poorly, so a single value says little.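 HEK293T cells were given each compound shortly before transfection with a reporter in which red mCherry is followed by the SARS-CoV-2 frameshift element and then GFP in the −1 frame, so GFP appears only after frameshifting.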

What follows are compounds tested on HEK293T (assay: percent viability (nuclei count) relative to control; higher = more viable cells). Conditions: 10 µM; 24 h.

Compound | percent viability [%]
CC(C)(C)C1CCC(CC2=C(O)c3ccccc3C(=O)C2=O)CC1 (centres undefined) [buparvaquone] | 126
O=C(NC[C@H]1CN(c2ccc(N3CCOCC3=O)cc2)C(=O)O1)c1ccc(Cl)s1 [rivaroxaban] | 207
Cc1noc(NS(=O)(=O)c2ccc(N)cc2)c1C [sulfafurazole] | 129
Cc1cc2c(OCC(O)CNC(C)C)cccc2[nH]1 (centres undefined) [mepindolol] | 273
